Reference: patent US5677346A, “Treating urinary incontinence using (S)-desethyloxybutynin” (Sepracor, Inc., priority 1995, dated 1997)

Tests used:
[1] = tested on: Ca channel (T + L, diltiazem site); assay type: binding, rat
Description: (§1) Binding assays were performed using the following methods:
(§2) Ca channel rat cerebral cortex
(T + L, diltiazem site) and Langer
Ca channel [^3 H] diltiazem
(T + L, diltiazem site) (10 μM)
(§3) Following incubation, the assays were rapidly filtered under vacuum through GF/B or GF/C glass fiber filters (Whatman) and washed with an ice-cold buffer using a Brandel Cell Harvester. Bound radio-activity was determined with a liquid scintillation counter (LS6000, Beckman) using a liquid scintillation cocktail (Formula 989, DuPont NEN).
(§4) The compounds were tested in duplicate on each receptor at a concentration of 10^-5 M. In each experiment, the reference compound for the receptor under investigation was simultaneously tested at 8 concentrations in duplicate to obtain a competition curve in order to validate this experiment.
(§5) The specific radioligand binding of each receptor was defined as the difference between total binding and nonspecific binding determined in the presence of an excess of unlabelled ligand. […] These parameters were obtained by curve fitting using Sigmaplot™ software.
(§6) The percent inhibition of specific radioligand binding induced by each compound (R-, S-, and RS-DEO) was tested at the diltiazem and verapamil sites of the L-type calcium channel.

[2] = tested on: Ca channel (T + L, verapamil site); assay: Binding to calcium channel, verapamil site ([3H]D 888, rat cerebral cortex)
Description: as §1, §2
(T + L, verapamil site) (1986)
(T + L, verapamil site) (10 μM)
as §3, §4, §5, §6

SMILES | Inhibition of diltiazem binding to calcium channel receptors [1] | Inhibition of verapamil binding to calcium channel receptors [2]
CCN(CC)CC#CCOC(=O)[C@](O)(c1ccccc1)C1CCCCC1 [R-OXY, reference compound] | 86 | 86
CCN(CC)CC#CCOC(=O)[C@@](O)(c1ccccc1)C1CCCCC1 [S-OXY, 4-(diethylamino)-2-butynyl α-cyclohexyl-α-hydroxybenzeneacetate] | 59 | 68
